Data from patent publication US9334523B2, “Substrates and methods for staining live stem cells” (LIFE TECHNOLOGIES CORPORATION, priority 2011, dated 2016).
For at least one compound, name, drawing or mass did not settle the structure.

Tested on: H9 ESCs
Assay: Live staining of H9 ESCs cultured on MEF feeders with alkaline phosphatase substrates
Assay type: cell-based, human
Conditions: end-product
Procedure: Here, two test alkaline phosphate substrates, Fluorescein diphosphate-AM ester (FDP-AM) and DDAOP-AM ester were tested for live staining on pluripotent stem cells like H9 ESCs cultured on MEF (mouse embryonic fibroblast) feeder cells. H9 ESCs and other stem cells expressed high alkaline phosphatase. Negative control cells were MEFs and human dermal fibroblasts which express far lower levels of alkaline phosphatase.
A 10 mM substrate master stock solution (1000×) of fluorescein diphosphate-AM ester (FDP-AM) or DDAOP-AM was prepared (for FDP-AM for e.g., by adding 512.5 μL of tissue culture grade DMSO to 4 mg of the compound (MW: 780.52)).
Then, 100 μL of 10 mM FDP-AM or DDAOP-AM solution was diluted into 900 μL of DMEM to make 1 mM working stock; or 10 μM working stock was prepared by diluting 10 μl to 10 ml with 100 mM Tris-HCl pH 8.2 or DMEM basal media; or 1 μM working stock was prepared by diluting 10 μL of 1 mM working stock in 10 ml of DMEM, which was used.
The AP (alkaline phosphatase) live compound with concentrations ranging: >1 μM, 5 μM, 10 μM, 50 μM, 100 μM, and 200 μM, was made by adding 1, 5, 10, 50, 100 and 200 μL of 1 mM FDP-AM or DDAOP-AM working stock. […]
Incubation times were then determined, beginning with 90 seconds. Where no FITC expression was detected, expression was continued for up to 30 minutes. […]

Compound: O=C1OC2(c3ccc(O)cc3Oc3cc(O)ccc32)c2ccccc21 [fluorescein]
- time to diffuse out of the cells: within a few hours
